These are yes or no findings as the source states them, for the method shown. Binding can be weak; no strength is given.
target: platelet-derived growth factor (PDGF)-CC (UniProt Q9NRA1); assay: ELISA, GF coated 50 nM, vWF 1 µg/mL

Chains of the proteins cited; added tags and fusions are not shown. Lines headed by an entry give the natural chain unless they say otherwise; changes in a name come on top. Residues count along the entry.
UniProt Q9NRA1: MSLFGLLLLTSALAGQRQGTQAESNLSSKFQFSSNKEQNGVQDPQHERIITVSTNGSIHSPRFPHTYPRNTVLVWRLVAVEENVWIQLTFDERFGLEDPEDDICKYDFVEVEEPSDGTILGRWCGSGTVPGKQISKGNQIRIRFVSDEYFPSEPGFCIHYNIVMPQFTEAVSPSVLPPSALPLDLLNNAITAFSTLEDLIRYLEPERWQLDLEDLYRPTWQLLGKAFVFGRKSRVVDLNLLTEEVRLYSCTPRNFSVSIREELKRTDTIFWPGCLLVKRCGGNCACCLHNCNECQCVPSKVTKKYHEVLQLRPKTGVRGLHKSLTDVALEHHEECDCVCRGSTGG
UniProt P04275, residues 764-2813: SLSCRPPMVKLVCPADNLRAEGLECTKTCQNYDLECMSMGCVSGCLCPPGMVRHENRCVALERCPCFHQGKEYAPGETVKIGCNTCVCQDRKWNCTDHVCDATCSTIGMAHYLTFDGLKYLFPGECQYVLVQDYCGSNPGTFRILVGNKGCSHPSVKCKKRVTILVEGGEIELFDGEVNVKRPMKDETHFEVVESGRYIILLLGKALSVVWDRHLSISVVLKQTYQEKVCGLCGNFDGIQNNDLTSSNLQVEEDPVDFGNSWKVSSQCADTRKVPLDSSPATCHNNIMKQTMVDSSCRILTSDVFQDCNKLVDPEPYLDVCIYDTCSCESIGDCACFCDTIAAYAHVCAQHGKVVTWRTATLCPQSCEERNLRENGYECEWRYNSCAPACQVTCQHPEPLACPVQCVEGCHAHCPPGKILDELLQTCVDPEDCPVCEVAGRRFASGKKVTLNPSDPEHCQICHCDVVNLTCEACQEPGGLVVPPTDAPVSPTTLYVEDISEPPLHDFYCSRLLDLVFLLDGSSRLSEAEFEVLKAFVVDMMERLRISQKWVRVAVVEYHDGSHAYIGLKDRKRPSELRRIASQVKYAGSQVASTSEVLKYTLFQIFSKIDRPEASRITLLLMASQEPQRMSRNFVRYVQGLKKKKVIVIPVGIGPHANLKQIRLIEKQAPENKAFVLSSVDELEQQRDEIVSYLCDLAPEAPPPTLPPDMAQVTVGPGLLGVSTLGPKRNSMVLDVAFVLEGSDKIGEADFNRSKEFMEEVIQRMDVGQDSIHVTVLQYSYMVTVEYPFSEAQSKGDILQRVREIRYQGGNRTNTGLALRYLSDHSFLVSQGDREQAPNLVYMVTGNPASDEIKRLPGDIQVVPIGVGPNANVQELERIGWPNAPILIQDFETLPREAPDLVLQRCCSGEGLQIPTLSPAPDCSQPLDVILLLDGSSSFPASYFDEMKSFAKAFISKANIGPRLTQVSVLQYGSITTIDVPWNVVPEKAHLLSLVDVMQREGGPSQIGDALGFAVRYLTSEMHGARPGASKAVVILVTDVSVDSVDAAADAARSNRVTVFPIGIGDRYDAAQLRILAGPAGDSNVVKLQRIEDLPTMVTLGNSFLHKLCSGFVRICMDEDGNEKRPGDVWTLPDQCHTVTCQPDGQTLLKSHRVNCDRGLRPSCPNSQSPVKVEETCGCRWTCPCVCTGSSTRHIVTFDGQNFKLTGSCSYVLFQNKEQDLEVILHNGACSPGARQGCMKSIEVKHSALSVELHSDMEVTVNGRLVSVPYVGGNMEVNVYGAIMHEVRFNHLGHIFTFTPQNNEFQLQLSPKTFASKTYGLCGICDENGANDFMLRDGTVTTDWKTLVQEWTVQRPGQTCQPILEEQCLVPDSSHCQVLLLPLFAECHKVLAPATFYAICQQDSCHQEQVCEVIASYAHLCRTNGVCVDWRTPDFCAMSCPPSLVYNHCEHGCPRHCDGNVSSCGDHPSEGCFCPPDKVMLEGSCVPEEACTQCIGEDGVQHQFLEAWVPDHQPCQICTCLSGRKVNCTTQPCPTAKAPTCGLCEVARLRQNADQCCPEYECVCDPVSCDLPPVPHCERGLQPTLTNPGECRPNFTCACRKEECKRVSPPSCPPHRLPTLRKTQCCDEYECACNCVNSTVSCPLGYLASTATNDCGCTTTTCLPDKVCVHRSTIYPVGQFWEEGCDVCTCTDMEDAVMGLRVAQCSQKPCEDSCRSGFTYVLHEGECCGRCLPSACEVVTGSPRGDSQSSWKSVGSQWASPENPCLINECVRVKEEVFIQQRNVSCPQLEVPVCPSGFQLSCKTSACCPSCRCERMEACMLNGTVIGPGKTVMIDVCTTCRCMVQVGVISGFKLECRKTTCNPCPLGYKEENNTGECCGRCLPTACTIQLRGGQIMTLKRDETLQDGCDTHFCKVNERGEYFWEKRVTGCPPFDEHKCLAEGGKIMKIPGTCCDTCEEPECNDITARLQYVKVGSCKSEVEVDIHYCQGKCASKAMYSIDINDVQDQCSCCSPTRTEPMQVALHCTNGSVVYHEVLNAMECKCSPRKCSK
UniProt P24043: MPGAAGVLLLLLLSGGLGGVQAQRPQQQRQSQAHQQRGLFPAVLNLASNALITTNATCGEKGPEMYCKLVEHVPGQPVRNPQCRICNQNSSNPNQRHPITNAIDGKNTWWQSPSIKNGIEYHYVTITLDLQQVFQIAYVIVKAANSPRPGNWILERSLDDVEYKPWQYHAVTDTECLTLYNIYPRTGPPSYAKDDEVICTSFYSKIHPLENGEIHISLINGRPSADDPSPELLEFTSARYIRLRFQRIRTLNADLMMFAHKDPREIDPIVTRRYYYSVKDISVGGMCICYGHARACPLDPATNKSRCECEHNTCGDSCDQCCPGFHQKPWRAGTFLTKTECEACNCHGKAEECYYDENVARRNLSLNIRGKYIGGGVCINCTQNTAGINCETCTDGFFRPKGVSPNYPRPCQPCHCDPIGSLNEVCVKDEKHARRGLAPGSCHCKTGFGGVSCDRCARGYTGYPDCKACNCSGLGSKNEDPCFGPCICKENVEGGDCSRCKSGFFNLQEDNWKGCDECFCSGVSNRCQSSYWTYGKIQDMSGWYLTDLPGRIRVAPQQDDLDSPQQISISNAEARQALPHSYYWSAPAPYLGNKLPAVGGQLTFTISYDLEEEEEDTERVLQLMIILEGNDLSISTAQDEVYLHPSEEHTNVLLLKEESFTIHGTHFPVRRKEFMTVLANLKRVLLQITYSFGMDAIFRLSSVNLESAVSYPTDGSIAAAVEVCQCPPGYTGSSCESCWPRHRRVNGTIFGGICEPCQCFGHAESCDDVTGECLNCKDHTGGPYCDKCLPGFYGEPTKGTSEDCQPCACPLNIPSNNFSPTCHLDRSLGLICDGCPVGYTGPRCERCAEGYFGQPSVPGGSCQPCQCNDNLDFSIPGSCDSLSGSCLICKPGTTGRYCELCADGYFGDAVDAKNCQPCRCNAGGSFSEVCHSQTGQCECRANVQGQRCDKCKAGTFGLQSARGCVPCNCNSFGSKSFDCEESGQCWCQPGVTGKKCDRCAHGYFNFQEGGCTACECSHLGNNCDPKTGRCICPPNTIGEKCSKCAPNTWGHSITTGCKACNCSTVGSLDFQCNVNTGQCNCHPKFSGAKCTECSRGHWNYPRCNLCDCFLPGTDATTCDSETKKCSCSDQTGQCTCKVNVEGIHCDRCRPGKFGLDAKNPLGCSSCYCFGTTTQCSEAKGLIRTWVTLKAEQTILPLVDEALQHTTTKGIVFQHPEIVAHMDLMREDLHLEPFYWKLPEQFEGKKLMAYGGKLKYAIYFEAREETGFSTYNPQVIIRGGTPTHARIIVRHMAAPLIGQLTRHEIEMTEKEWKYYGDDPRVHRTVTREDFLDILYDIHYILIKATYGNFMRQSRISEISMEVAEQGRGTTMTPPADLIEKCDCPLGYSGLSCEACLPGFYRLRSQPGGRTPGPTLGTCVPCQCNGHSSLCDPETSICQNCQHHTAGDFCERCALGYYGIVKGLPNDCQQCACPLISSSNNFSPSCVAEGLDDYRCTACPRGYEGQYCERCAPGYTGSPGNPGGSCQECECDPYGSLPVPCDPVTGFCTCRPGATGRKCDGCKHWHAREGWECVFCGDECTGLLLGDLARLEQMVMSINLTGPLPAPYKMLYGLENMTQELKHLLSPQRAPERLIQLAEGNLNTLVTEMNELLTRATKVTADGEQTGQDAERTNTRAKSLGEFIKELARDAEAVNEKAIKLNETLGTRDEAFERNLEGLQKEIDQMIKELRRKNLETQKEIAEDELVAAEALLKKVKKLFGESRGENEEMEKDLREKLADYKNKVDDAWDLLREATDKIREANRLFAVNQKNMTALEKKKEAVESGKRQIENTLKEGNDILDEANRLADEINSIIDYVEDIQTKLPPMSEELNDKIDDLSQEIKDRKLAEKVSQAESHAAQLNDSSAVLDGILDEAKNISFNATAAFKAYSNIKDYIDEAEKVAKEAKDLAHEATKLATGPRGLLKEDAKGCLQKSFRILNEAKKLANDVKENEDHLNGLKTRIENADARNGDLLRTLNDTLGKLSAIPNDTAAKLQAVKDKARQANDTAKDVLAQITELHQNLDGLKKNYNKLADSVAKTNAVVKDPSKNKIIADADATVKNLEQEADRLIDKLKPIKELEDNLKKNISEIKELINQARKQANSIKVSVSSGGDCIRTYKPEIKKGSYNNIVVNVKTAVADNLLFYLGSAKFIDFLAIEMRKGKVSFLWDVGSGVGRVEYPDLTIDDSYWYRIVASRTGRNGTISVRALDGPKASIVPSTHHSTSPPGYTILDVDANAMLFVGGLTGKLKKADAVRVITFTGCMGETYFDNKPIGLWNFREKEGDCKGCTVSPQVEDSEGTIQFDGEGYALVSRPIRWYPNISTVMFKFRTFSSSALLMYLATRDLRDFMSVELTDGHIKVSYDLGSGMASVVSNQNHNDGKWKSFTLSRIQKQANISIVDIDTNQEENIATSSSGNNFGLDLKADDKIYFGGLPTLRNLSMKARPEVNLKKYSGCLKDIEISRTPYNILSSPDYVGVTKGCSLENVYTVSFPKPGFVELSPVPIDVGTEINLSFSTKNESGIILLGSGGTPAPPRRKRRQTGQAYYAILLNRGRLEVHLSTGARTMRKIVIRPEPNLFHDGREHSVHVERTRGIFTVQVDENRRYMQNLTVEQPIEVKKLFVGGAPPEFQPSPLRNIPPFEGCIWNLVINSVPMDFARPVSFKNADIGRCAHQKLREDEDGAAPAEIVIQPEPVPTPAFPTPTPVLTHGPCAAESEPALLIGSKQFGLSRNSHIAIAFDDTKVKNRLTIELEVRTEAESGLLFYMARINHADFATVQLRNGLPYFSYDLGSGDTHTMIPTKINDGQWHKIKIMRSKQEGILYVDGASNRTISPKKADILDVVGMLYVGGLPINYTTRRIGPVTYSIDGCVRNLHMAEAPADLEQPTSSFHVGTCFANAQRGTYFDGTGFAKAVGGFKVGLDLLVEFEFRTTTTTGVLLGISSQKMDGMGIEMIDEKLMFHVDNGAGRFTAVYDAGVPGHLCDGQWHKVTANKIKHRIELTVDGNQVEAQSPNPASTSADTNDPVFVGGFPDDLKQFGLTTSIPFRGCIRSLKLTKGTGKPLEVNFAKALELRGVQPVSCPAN

binding	Substance
binds	human plasma-derived vWF (from UniProt P04275 764-2813)

target: platelet-derived growth factor (PDGF)-CC (UniProt Q9NRA1); assay: ELISA, GF coated, laminin 10 nM

Substance	binding
laminin-111 (from UniProt P25391 18-3075; P07942 22-1786; P11047 34-1609)	binds
laminin-332 (from UniProt Q16787 28-1724; Q13751 18-1172; Q13753 22-1193)	binds
laminin-411 (from UniProt Q16363 25-1823; P07942 22-1786; P11047 34-1609)	binds
laminin-421 (from UniProt Q16363 25-1823; P55268 33-1798; P11047 34-1609)	binds
laminin-511 (from UniProt O15230 36-3695; P07942 22-1786; P11047 34-1609)	binds

More lines, now with the values ahead:

binding	Substance
binds	laminin-211 (from UniProt P24043 23-3122; P07942 22-1786; P11047 34-1609)
binds	laminin-521 (from UniProt O15230 36-3695; P55268 33-1798; P11047 34-1609)
